Results from US20230032643A1.
Results are given in words; binding and its absence hold for the method and conditions named. Some results given as binding are weak or reduced against the parent protein; the word gives no strength.

The chains behind the UniProt entries cited, without tags or fusion partners. Where a name states a change or a piece, a line headed by the entry shows the natural chain unless it says otherwise.
UniProt P20023: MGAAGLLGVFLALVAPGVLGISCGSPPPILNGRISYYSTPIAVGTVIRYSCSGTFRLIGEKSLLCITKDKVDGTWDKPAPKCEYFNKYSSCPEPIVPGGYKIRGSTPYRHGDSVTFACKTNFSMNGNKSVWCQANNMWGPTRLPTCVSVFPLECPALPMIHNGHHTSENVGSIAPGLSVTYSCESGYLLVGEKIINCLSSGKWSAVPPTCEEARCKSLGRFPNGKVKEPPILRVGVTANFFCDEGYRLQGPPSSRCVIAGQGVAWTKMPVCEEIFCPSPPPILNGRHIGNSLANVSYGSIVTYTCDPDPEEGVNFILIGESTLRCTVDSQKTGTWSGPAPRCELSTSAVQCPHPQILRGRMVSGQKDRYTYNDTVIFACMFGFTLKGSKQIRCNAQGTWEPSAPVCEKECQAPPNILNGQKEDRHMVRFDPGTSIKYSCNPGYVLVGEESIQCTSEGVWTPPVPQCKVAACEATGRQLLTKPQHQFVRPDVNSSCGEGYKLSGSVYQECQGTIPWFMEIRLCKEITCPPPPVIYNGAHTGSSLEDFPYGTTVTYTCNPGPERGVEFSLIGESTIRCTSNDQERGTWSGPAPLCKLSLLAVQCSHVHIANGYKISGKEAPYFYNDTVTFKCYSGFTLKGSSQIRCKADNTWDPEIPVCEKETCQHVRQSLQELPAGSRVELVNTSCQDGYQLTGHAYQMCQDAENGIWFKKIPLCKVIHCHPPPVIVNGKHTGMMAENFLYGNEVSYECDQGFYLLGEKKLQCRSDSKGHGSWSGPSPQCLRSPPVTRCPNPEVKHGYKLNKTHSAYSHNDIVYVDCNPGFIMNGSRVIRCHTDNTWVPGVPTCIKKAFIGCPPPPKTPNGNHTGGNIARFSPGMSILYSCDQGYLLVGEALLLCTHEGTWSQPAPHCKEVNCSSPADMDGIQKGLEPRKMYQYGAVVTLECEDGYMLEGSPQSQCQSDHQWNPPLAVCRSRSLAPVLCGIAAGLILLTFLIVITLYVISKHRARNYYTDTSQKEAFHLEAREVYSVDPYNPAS
UniProt P01024: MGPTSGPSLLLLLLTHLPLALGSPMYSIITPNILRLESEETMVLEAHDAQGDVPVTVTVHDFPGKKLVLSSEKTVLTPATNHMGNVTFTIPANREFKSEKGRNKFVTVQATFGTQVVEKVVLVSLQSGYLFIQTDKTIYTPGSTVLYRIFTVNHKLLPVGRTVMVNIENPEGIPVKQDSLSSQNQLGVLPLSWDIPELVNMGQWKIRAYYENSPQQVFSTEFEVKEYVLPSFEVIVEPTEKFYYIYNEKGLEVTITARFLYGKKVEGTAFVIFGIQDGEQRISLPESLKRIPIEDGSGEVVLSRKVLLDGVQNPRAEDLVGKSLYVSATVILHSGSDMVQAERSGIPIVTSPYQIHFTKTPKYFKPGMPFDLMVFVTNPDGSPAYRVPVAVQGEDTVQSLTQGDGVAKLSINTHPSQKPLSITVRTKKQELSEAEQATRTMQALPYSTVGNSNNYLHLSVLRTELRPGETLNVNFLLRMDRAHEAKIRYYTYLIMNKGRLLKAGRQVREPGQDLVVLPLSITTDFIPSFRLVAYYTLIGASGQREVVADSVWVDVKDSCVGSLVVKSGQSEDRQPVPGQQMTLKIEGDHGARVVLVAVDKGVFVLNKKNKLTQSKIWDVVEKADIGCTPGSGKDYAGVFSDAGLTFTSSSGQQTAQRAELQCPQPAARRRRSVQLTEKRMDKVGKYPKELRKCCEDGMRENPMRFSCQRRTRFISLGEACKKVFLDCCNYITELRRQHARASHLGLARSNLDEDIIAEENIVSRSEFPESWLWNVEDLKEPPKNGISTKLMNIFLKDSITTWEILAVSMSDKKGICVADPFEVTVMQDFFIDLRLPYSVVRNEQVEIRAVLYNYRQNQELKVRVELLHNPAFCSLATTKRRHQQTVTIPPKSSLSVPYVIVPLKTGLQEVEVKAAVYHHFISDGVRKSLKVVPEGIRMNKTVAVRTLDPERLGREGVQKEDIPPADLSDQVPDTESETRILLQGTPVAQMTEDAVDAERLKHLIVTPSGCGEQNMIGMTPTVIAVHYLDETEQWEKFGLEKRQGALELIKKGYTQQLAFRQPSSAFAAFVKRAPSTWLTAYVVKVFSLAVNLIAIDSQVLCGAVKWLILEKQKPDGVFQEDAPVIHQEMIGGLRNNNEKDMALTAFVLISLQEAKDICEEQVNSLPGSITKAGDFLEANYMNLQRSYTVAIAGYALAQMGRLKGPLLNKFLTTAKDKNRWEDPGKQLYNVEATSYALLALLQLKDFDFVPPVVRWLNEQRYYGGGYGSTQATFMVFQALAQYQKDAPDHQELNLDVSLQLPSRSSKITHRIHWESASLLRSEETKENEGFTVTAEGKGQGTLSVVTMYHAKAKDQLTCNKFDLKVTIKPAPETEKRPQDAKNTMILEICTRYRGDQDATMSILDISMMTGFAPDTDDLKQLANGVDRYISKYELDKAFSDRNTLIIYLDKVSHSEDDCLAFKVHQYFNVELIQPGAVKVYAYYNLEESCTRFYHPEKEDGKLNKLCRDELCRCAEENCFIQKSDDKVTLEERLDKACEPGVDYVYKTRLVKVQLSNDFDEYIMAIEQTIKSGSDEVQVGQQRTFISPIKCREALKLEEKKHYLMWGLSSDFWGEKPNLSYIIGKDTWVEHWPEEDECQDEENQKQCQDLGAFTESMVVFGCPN

Molecular target: human CR2 on primary human cells (B cells in PBMCs; tonsil follicular dendritic cells) (human) (UniProt P20023)
Assay: flow cytometry on CD20+ B cells in human PBMCs; APC fluorescence of pre-bound C3dg:Streptavidin-APC after washing, followed over time

binding: binds
Substance: C3dg:Streptavidin-APC complexes (from UniProt P01024 955-1303; P22629 37-163) (ligand)
